The other results are listed elsewhere or left out.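 The calls were made as follows: active = dose-dependent thermal stabilisation significant by F-test of dose-response against flat model at 10% FDR; inactive = not significant.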
compound: Nc1nc2c(ncn2[C@@H]2O[C@H](COP(=O)(O)OP(=O)(O)OP(=O)(O)O)[C@@H](O)[C@H]2O)c(=O)[nH]1; experiment: dose-dependent thermal stabilisation call (2D-TPP, DLPTP, 10% FDR) (binary (1 = stabilised)); higher = stabilised by the compound; details: system: Jurkat gel-filtered lysate; concentration range 1-500 µM

The chains behind the UniProt entries cited, without tags or fusion partners. Where a name states a change or a piece, a line headed by the entry shows the natural chain unless it says otherwise.
UniProt Q9Y315: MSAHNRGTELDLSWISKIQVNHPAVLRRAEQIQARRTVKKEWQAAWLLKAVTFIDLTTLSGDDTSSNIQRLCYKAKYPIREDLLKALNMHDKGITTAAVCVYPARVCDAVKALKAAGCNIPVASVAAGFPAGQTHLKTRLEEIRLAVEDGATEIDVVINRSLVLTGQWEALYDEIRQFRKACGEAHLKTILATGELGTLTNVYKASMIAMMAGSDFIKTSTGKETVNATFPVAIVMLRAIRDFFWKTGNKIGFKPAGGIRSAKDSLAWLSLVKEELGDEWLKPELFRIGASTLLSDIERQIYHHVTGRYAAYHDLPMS
UniProt Q92608: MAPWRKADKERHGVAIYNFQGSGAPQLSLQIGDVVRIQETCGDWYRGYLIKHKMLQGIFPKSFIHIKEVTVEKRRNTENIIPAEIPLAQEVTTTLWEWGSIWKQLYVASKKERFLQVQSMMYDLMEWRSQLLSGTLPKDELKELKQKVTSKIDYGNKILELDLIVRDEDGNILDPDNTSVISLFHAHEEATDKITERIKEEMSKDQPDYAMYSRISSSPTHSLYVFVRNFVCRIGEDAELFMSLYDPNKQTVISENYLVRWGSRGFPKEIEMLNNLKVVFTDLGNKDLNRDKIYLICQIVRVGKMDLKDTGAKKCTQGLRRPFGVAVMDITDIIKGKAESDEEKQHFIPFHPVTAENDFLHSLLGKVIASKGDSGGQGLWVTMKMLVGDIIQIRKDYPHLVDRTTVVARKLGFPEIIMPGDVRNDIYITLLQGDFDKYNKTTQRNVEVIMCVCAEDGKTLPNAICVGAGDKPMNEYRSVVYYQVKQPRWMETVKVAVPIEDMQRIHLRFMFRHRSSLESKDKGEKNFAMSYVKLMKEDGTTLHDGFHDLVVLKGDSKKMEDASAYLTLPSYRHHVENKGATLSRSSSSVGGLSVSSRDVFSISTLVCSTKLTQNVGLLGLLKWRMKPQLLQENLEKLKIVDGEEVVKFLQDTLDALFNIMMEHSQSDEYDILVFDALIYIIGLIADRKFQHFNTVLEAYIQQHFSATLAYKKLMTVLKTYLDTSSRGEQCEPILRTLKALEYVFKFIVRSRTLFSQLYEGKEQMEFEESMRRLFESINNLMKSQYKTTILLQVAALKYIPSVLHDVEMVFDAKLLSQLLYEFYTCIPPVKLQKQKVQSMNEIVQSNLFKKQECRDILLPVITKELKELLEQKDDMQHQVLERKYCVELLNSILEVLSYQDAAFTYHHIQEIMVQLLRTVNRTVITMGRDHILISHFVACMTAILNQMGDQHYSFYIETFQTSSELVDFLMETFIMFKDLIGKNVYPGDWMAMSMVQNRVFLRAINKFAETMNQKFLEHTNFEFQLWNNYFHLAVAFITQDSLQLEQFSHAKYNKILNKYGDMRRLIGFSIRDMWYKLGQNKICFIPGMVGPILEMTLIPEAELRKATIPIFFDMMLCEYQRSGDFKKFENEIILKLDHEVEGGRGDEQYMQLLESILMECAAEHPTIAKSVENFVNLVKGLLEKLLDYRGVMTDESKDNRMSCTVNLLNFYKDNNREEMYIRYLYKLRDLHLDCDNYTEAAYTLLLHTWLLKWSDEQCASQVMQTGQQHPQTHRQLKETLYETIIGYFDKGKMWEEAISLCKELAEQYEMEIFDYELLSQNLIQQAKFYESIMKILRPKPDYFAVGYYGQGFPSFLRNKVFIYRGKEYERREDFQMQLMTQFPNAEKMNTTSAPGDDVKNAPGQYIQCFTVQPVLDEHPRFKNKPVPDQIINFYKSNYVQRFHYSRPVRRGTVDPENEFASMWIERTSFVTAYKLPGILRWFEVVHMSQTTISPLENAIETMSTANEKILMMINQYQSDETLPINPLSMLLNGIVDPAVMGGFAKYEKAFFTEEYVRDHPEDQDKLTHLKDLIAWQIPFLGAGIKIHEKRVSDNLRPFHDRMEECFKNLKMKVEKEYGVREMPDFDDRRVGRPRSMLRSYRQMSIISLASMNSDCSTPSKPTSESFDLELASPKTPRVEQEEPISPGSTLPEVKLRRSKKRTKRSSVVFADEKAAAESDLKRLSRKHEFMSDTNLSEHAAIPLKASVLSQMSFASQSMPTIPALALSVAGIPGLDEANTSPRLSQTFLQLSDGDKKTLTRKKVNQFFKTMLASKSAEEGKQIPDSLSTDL
UniProt Q5QJE6: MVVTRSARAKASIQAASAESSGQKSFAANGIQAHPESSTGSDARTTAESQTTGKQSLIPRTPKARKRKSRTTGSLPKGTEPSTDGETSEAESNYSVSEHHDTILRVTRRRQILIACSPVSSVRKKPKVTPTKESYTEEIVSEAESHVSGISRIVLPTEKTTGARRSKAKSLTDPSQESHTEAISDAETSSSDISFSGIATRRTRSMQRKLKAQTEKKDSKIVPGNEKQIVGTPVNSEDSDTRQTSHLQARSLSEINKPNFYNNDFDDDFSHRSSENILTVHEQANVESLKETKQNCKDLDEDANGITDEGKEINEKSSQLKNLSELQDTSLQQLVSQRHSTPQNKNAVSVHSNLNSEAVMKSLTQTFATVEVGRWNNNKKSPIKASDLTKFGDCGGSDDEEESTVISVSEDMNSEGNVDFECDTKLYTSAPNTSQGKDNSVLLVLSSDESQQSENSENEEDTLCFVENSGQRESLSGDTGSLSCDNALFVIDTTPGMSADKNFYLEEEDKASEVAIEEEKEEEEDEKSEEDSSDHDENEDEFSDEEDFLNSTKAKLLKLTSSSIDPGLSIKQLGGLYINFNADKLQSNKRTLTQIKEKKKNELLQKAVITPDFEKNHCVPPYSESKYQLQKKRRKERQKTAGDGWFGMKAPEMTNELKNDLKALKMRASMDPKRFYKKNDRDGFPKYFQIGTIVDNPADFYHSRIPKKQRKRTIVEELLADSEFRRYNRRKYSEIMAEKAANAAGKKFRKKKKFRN
UniProt Q7L014: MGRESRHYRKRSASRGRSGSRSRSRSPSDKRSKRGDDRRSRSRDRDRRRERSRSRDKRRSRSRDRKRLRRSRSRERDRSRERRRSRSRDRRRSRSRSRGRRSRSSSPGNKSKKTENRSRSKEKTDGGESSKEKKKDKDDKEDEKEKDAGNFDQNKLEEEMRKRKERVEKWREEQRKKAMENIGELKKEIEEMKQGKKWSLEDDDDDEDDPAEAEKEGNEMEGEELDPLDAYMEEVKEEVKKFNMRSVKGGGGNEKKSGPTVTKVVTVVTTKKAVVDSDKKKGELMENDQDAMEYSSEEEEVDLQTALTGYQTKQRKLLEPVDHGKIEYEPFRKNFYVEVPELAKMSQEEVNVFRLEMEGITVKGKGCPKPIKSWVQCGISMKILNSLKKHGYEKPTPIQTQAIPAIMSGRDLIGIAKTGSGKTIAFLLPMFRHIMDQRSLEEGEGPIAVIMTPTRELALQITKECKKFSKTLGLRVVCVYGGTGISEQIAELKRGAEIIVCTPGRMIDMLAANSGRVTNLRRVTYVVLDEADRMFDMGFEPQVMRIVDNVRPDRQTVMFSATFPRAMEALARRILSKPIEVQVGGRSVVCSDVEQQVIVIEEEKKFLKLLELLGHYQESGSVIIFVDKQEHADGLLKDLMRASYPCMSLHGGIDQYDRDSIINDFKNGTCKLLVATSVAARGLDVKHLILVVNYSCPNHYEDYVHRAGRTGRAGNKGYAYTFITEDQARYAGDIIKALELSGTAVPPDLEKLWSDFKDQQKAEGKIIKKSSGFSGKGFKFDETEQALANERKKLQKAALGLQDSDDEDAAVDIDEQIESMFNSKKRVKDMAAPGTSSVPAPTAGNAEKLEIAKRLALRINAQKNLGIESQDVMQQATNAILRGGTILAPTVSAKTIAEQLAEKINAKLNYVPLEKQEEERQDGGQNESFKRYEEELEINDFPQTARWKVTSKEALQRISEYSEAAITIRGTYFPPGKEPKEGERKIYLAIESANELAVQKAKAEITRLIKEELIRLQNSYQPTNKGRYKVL
UniProt P04080: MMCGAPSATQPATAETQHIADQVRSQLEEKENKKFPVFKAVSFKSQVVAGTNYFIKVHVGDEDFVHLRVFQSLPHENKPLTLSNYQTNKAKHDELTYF
UniProt Q8IZD4: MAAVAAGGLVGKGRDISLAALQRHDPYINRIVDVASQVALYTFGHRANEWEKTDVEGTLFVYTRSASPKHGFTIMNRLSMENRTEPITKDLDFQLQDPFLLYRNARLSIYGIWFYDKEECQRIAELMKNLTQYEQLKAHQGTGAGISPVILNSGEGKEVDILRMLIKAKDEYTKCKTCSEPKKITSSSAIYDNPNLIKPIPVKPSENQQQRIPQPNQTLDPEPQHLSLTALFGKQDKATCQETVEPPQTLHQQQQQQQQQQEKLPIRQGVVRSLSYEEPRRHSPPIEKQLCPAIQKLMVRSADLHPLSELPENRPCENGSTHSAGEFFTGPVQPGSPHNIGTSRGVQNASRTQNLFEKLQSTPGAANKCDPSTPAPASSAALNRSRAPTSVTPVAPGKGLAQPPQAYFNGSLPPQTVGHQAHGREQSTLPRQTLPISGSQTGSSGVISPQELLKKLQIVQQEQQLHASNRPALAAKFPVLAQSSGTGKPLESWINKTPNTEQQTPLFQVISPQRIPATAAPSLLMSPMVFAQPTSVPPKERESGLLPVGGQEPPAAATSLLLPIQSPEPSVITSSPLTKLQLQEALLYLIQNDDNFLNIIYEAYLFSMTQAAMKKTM
UniProt Q9NP97, whole entry: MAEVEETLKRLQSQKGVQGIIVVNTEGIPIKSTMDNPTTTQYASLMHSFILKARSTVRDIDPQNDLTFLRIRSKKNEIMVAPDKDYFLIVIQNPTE
UniProt Q6UXH1: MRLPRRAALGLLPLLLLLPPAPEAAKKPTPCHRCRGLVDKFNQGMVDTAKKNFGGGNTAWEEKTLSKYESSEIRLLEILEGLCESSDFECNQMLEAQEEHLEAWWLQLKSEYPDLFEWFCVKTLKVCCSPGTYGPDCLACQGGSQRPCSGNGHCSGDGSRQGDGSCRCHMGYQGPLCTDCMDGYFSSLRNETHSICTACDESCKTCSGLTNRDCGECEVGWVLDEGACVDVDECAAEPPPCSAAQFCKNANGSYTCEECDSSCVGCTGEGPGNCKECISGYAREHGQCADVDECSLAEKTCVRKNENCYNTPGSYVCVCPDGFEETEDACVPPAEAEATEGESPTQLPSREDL
UniProt P16220: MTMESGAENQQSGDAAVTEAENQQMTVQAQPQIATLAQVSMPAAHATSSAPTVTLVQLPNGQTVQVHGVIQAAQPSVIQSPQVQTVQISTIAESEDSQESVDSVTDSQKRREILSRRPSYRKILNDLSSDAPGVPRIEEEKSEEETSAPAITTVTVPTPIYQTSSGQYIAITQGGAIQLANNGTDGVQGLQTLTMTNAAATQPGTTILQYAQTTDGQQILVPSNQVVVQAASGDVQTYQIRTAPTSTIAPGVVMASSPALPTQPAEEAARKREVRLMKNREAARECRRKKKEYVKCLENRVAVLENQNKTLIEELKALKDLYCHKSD
UniProt O60879: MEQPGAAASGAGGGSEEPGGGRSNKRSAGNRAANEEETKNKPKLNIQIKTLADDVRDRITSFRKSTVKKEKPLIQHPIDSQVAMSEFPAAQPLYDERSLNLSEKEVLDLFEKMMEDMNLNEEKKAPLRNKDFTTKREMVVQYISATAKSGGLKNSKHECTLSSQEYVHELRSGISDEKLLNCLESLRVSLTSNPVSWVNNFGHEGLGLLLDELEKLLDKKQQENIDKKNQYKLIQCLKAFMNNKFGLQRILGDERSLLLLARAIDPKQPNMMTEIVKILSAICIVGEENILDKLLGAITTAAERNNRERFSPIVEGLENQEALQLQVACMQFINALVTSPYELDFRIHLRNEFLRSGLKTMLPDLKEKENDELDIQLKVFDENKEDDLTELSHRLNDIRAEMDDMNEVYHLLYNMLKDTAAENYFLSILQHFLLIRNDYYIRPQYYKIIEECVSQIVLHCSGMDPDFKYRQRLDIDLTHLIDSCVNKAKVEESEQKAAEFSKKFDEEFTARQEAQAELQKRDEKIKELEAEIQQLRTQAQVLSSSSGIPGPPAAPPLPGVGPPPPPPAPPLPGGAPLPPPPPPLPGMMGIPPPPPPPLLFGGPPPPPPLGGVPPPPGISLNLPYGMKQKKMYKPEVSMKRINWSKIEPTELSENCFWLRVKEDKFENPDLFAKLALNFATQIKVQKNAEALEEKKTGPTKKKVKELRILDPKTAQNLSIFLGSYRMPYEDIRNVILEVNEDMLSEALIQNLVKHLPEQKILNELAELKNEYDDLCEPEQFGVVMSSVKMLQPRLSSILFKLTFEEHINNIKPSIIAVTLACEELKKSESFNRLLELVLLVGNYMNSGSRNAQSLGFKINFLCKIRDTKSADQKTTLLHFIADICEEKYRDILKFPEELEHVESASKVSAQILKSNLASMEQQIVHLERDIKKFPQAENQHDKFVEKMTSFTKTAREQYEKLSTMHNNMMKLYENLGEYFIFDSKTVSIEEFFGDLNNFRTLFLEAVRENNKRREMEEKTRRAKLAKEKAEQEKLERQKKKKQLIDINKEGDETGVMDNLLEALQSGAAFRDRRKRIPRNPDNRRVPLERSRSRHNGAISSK

dose-dependent thermal stabilisation call, active:
DNM2 (UniProt P50570) 1, E4F1 (UniProt Q66K89) 1, DHX40 (UniProt Q8IX18) 1

dose-dependent thermal stabilisation call, inactive:
CRACR2A (UniProt Q9BSW2) 0, DPP7 (UniProt Q9UHL4) 0, DERA (UniProt Q9Y315) 0, CUL2 (UniProt Q13617) 0, DOCK2 (UniProt Q92608) 0, DCAF1 (UniProt Q9Y4B6) 0, DDX1 (UniProt Q92499) 0, DEF6 (UniProt Q9H4E7) 0, DCAF12 (UniProt Q5T6F0) 0, CSPP1 (UniProt Q1MSJ5) 0, DDAH2 (UniProt O95865) 0, DIDO1 (UniProt Q9BTC0) 0, DOCK9 (UniProt Q9BZ29) 0, DCTN6 (UniProt O00399) 0, EEF1G (UniProt P26641) 0, DPF3 (UniProt Q92784) 0, DNTTIP2 (UniProt Q5QJE6) 0, DDX46 (UniProt Q7L014) 0, CROCC (UniProt Q5TZA2) 0, DBN1 (UniProt Q16643) 0, CSTB (UniProt P04080) 0, DYNC1H1 (UniProt Q14204) 0, DCP1B (UniProt Q8IZD4) 0, CTH (UniProt P32929) 0, DYNLRB1 (UniProt Q9NP97) 0, CRELD2 (UniProt Q6UXH1) 0, CREB1 (UniProt P16220) 0, DDX6 (UniProt P26196) 0, DBNL (UniProt Q9UJU6) 0, DNMT1 (UniProt P26358) 0, DNAJB1 (UniProt P25685) 0, DNPEP (UniProt Q9ULA0) 0, DIAPH2 (UniProt O60879) 0

Reference: the supplement of paper PMC7666118
